PubChem BioAssay AID1259308, NCATS, 2017
Here is an unselected part of about 59,000 reagents. About 1,510 of all reagents (2.6%) were called active. 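Calls use total luciferase alone and ignore viability, so some active siRNAs may act by altering cell number.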 Reagents against one gene are numbered here. Not all columns of the deposit are shown. No sequences are given here.

- Purpose: 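Candidate targets for better recombinant protein yield in mammalian cells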 (primary screen)
- System: human HEK293 embryonic kidney cells stably expressing firefly luciferase (HEK-CMV-Luc2-Hygro)
- Reagent: single siRNA against human genes, 0.8 pmol siRNA per well
- Duration: 72 h
- Read-out: 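Luciferase light (ONE-Glo) measured on one replicate plate set and viability (CellTiter-Glo) on the other, scaled to a negative control siRNA, with robust z-scores and luciferase per cell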
- Reading the numbers: total luciferase, z-score and total luciferase, % of control: higher = more reporter protein produced
- Active means: 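An siRNA counts as active if its total luciferase robust z-score exceeds 3; genes with two or more such siRNAs out of three were retested with fresh siRNAs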
- Calls: active = raised luciferase; inactive = no rise

For VWA3B (von Willebrand factor A domain containing 3B) #1, how do the results read?
total luciferase, z-score: 2.35; total luciferase, % of control: 129; outcome: inactive

What did the screen give for VWA3B (von Willebrand factor A domain containing 3B) #2?
total luciferase, z-score: -0.558; total luciferase, % of control: 70.8; outcome: inactive

How did the screen score VWA3B (von Willebrand factor A domain containing 3B) #3?
total luciferase, z-score: -1.04; total luciferase, % of control: 61.3; outcome: inactive

What is on record for ATP6V0E1 (ATPase H+ transporting V0 subunit e1) #1?
total luciferase, z-score: 0.323; total luciferase, % of control: 88.3; outcome: inactive

What is on record for ATP6V0E1 (ATPase H+ transporting V0 subunit e1) #2?
total luciferase, z-score: 0.0717; total luciferase, % of control: 83.3; outcome: inactive

What is on record for ATP6V0E1 (ATPase H+ transporting V0 subunit e1) #3?
total luciferase, z-score: 0.152; total luciferase, % of control: 84.9; outcome: inactive

For A1BG (alpha-1-B glycoprotein) #1, what does the deposit list?
total luciferase, z-score: -0.579; total luciferase, % of control: 70.4; outcome: inactive

For A1BG (alpha-1-B glycoprotein) #2, what does the deposit list?
total luciferase, z-score: 0.4; total luciferase, % of control: 89.8; outcome: inactive

How did the screen score A1BG (alpha-1-B glycoprotein) #3?
total luciferase, z-score: -0.19; total luciferase, % of control: 78.1; outcome: inactive

What is on record for SLC35B2 #1?
total luciferase, z-score: -0.589; total luciferase, % of control: 70.2; outcome: inactive

What did the screen give for SLC35B2 #2?
total luciferase, z-score: -0.07; total luciferase, % of control: 80.5; outcome: inactive

For SLC35B2 #3, what was measured?
total luciferase, z-score: -1.65; total luciferase, % of control: 49.1; outcome: inactive

Not a retest: an excerpt of the list.
VWA3B (von Willebrand factor A domain containing 3B) #3 — total luciferase, z-score: -1.04; total luciferase, % of control: 61.3; outcome: inactive
ATP6V0E1 (ATPase H+ transporting V0 subunit e1) #1 — total luciferase, z-score: 0.323; total luciferase, % of control: 88.3; outcome: inactive
ATP6V0E1 (ATPase H+ transporting V0 subunit e1) #2 — total luciferase, z-score: 0.0717; total luciferase, % of control: 83.3; outcome: inactive

Additional entries follow:
Which result is listed for C2orf81 (chromosome 2 open reading frame 81) #1?
total luciferase, z-score: -0.217; total luciferase, % of control: 77.6; outcome: inactive

With C2orf81 (chromosome 2 open reading frame 81) #2, what does the deposit list?
total luciferase, z-score: -0.521; total luciferase, % of control: 71.5; outcome: inactive

What is on record for C2orf81 (chromosome 2 open reading frame 81) #3?
total luciferase, z-score: 1.41; total luciferase, % of control: 110; outcome: inactive

Which result is listed for GGT5 (gamma-glutamyltransferase 5) #1?
total luciferase, z-score: -1.09; total luciferase, % of control: 60.2; outcome: inactive

What is on record for GGT5 (gamma-glutamyltransferase 5) #2?
total luciferase, z-score: 0.403; total luciferase, % of control: 89.9; outcome: inactive

For GGT5 (gamma-glutamyltransferase 5) #3, what was measured?
total luciferase, z-score: 1.63; total luciferase, % of control: 114; outcome: inactive

For TERF2IP (TERF2 interacting protein) #1, what does the deposit list?
total luciferase, z-score: 0.54; total luciferase, % of control: 92.6; outcome: inactive

For TERF2IP (TERF2 interacting protein) #2, what was measured?
total luciferase, z-score: -0.116; total luciferase, % of control: 79.6; outcome: inactive

What did the screen give for TERF2IP (TERF2 interacting protein) #3?
total luciferase, z-score: 0.532; total luciferase, % of control: 92.5; outcome: inactive
